Consider six compounds from patent US10100070B2, “Borate-based base generator, and base-reactive composition comprising such base generator” (FUJIFILM Wako Pure Chemical Corporation, priority 2014, dated 2018).

Entries after “also recorded” stand apart in the source; their conditions may differ. Some entries repeat one wording, which the source may state once for all of them.

The first series in a line: Exposure curing tests using a bisphenol-A-based diglycidyl ether oligomer and an acid anhydride. The settings on record: heated at 120° C. after exposure.
“1,5,7-triazabicyclo[4.4.0]deca-5-enium 2-(3-benzoylphenyl)propionate [Comp. Ex. 5, reference compound]”: the “Curing of epoxy with acid anhydride (in words)” value (“Curing of epoxy” below) was “curing at an exposed part and a non-exposed part proceeds at the same time”.

For the compound `CC(C(=O)[O-])c1cccc(C(=O)c2ccccc2)c1.CC(C)N=C(NC(N(C)C)=[N+](C)C)NC(C)C` (stereo not drawn) [Comp. Ex. 6, 1,2-diisopropyl-4,4,5,5-tetramethylbiguanidium 2-(3-benzoylphenyl)propionate, reference compound], the “Curing of epoxy” value was “curing at an exposed part and a non-exposed part proceeds at the same time”.

Turning to `CCCC[B-](c1ccccc1)(c1ccccc1)c1ccccc1.CN(C)C(=N)NC(N)=[NH2+]` [Comp. Ex. 7, 1,1-dimethylbiguanidium triphenyl(n-butyl)borate, reference compound], the “Curing of epoxy” value was “not capable of efficiently accelerating a reaction”.

Another series in a line: Radical UV curing tests using acrylates. Particulars: UV irradiation, acrylate curing.
Turning to `CC(C)NC(=[N+]=C(N(C)C)N(C)C)NC(C)C.Cc1ccc(C#C[B-](c2ccccc2)(c2ccccc2)c2ccccc2)cc1` [Example 6, 1,2-diisopropyl-4,4,5,5-tetramethylbiguanidium p-tolylethynyl triphenylborate], the “Radical generation (in words)” value is “not capable of generating a radical; also recorded: does not generate a radical”.

In the case of `CCN(CC)C(=O)OCc1c2ccccc2cc2ccccc12` [WPBG-018, 9-anthrylmethyl N,N-diethylcarbamate], the “Radical generation (in words)” value is given as “not capable of generating a radical”.

As to “tetrakis(tetramethylguanidino)phosphonium p-tolylethynyl triphenylborate [Example 7]”, the “Radical generation (in words)” value was “not capable of generating a radical”.
